In PubChem BioAssay AID330 (DTP/NCI, 2004):
The list does not hold the whole screen: it gathers tests that were run many times, whatever their T/C, doses with no T/C, and many T/C values between a quarter and a half above the control. Further doses and runs are listed elsewhere. T/C gives the treated animals as a percentage of the vehicle group. Some entries give survivors of the animals treated and no T/C: the source files T/C as zero there, which appears to mark a toxic dose or a test without result, not a measured value. Some survivor counts are full or nearly so, which does not show that the dose was tolerated: the source hardly ever lists a survival T/C far under the control, and the zero likely stands for such cases as well. Survivors were counted at the toxicity check, usually on the fifth day, unless a day is given; later deaths do not show. Schedules are NCI's codes, read here as Q, the interval in days (D) or hours (H), X, the number of doses. For survival time, the PubChem record calls one and a half times the control and up active, and a quarter to a half above the control has no call in these data; cut-offs in other NCI protocols can differ. Some entries were tested several times; the values are given in rising order.

Test system: P388 leukemia ip, CD2F1 mice, survival T/C
Test: NCI In Vivo Anticancer Drug Screen. Data for tumor model P388 Leukemia (intraperitoneal) in CD2F1 (CDF1) mice
Details: T/C endpoint: median survival time, higher T/C = longer survival
[1] = dose: 100.0 mg/kg/injection, schedule: Q04DX003 (ip), vehicle: Klucel (hydroxypropylcellulose) (HPC)

Cc1ccc(OP(=O)(Oc2ccc(C)cc2)Oc2ccc(C)cc2)cc1.Cc1ccc(OP(=O)(Oc2ccc(C)cc2)Oc2ccc(C)cc2)cc1.[Cl][Ni][Cl]
survivor count (dose: 50.0 mg/kg/injection, schedule: Q04DX003 (ip), vehicle: Klucel (hydroxypropylcellulose) (HPC)): 0 of 6 | T/C [1]: 109, 116, 120 % of control | survivor count [1]: 0 of 6 | survivor count (dose: 200.0 mg/kg/injection, schedule: Q04DX003 (ip), vehicle: Klucel (hydroxypropylcellulose) (HPC)): 5 of 6 | survivor count (dose: 400.0 mg/kg/injection, schedule: Q04DX003 (ip), vehicle: Klucel (hydroxypropylcellulose) (HPC)): 0 of 6

N=c1c2c(ncn1CCc1ccccc1)CCN(Cc1ccccc1)C2
survivor count (dose: 80.0 mg/kg/injection, schedule: Q01DX009 (ip), vehicle: saline with Tween-80): 1 of 6

Cc1ccc(COc2ccc(Cl)cc2Cn2ccnc2)cc1
survivor count (dose: 200.0 mg/kg/injection, schedule: Q04DX002 (ip), vehicle: saline): 2 of 6 | survivor count (dose: 400.0 mg/kg/injection, schedule: Q04DX002 (ip), vehicle: saline): 0 of 6
